B1: MOV10 (protein, UniProt Q9HCE1 1-1003)
chain: MPSKFSCRQLREAGQCFESFLVVRGLDMETDRERLRTIYNRDFKISFGTPAPGFSSMLYGMKIANLAYVTKTRVRFFRLDRWADVRFPEKRRMKLGSDISKHHKSLLAKIFYDRAEYLHGKHGVDVEVQGPHEARDGQLLIRLDLNRKEVLTLRLRNGGTQSVTLTHLFPLCRTPQFAFYNEDQELPCPLGPGECYELHVHCKTSFVGYFPATVLWELLGPGESGSEGAGTFYIARFLAAVAHSPLAAQLKPMTPFKRTRITGNPVVTNRIEEGERPDRAKGYDLELSMALGTYYPPPRLRQLLPMLLQGTSIFTAPKEIAEIKAQLETALKWRNYEVKLRLLLHLEELQMEHDIRHYDLESVPMTWDPVDQNPRLLTLEVPGVTESRPSVLRGDHLFALLSSETHQEDPITYKGFVHKVELDRVKLSFSMSLLSRFVDGLTFKVNFTFNRQPLRVQHRALELTGRWLLWPMLFPVAPRDVPLLPSDVKLKLYDRSLESNPEQLQAMRHIVTGTTRPAPYIIFGPPGTGKTVTLVEAIKQVVKHLPKAHILACAPSNSGADLLCQRLRVHLPSSIYRLLAPSRDIRMVPEDIKPCCNWDAKKGEYVFPAKKKLQEYRVLITTLITAGRLVSAQFPIDHFTHIFIDEAGHCMEPESLVAIAGLMEVKETGDPGGQLVLAGDPRQLGPVLRSPLTQKHGLGYSLLERLLTYNSLYKKGPDGYDPQFITKLLRNYRSHPTILDIPNQLYYEGELQACADVVDRERFCRWAGLPRQGFPIIFHGVMGKDEREGNSPSFFNPEEAATVTSYLKLLLAPSSKKGKARLSPRSVGVISPYRKQVEKIRYCITKLDRELRGLDDIKDLKVGSVEEFQGQERSVILISTVRSSQSFVQLDLDFNLGFLKNPKRFNVAVTRAKALLIIVGNPLLLGHDPDWKVFLEFCKENGGYTGCPFPAKLDLQQGQNLLQGLSKLSPSTSGPHSHDYLPQEREGEGGLSLQVEPEWRNEL
B2: UPF1 (protein, UniProt Q92900 1-1129)
chain: MSVEAYGPSSQTLTFLDTEEAELLGADTQGSEFEFTDFTLPSQTQTPPGGPGGPGGGGAGGPGGAGAGAAAGQLDAQVGPEGILQNGAVDDSVAKTSQLLAELNFEEDEEDTYYTKDLPIHACSYCGIHDPACVVYCNTSKKWFCNGRGNTSGSHIVNHLVRAKCKEVTLHKDGPLGETVLECYNCGCRNVFLLGFIPAKADSVVVLLCRQPCASQSSLKDINWDSSQWQPLIQDRCFLSWLVKIPSEQEQLRARQITAQQINKLEELWKENPSATLEDLEKPGVDEEPQHVLLRYEDAYQYQNIFGPLVKLEADYDKKLKESQTQDNITVRWDLGLNKKRIAYFTLPKTDSGNEDLVIIWLRDMRLMQGDEICLRYKGDLAPLWKGIGHVIKVPDNYGDEIAIELRSSVGAPVEVTHNFQVDFVWKSTSFDRMQSALKTFAVDETSVSGYIYHKLLGHEVEDVIIKCQLPKRFTAQGLPDLNHSQVYAVKTVLQRPLSLIQGPPGTGKTVTSATIVYHLARQGNGPVLVCAPSNIAVDQLTEKIHQTGLKVVRLCAKSREAIDSPVSFLALHNQIRNMDSMPELQKLQQLKDETGELSSADEKRYRALKRTAERELLMNADVICCTCVGAGDPRLAKMQFRSILIDESTQATEPECMVPVVLGAKQLILVGDHCQLGPVVMCKKAAKAGLSQSLFERLVVLGIRPIRLQVQYRMHPALSAFPSNIFYEGSLQNGVTAADRVKKGFDFQWPQPDKPMFFYVTQGQEEIASSGTSYLNRTEAANVEKITTKLLKAGAKPDQIGIITPYEGQRSYLVQYMQFSGSLHTKLYQEVEIASVDAFQGREKDFIILSCVRANEHQGIGFLNDPRRLNVALTRARYGVIIVGNPKALSKQPLWNHLLNYYKEQKVLVEGPLNNLRESLMQFSKPRKLVNTINPGARFMTTAMYDAREAIIPGSVYDRSSQGRPSSMYFQTHDQIGMISAGPSHVAAMNIPIPFNLVMPPMPPPGYFGQANGPAAGRGTPKGKTGRGGRQKNRFGLPGPSQTNLPNSQASQDVASQPFSQGALTQGYISMSQPSQMSQPGLSQPELSQDSYLGDEFKSQIDVALSQDSTYQGERAYQHGGVTGLSQY

Protein sequences, listed by entry. Tags and fused reporters are not part of them. Lines headed by an entry give the natural chain unless they say otherwise; changes in a name come on top.
UniProt Q8WXA9: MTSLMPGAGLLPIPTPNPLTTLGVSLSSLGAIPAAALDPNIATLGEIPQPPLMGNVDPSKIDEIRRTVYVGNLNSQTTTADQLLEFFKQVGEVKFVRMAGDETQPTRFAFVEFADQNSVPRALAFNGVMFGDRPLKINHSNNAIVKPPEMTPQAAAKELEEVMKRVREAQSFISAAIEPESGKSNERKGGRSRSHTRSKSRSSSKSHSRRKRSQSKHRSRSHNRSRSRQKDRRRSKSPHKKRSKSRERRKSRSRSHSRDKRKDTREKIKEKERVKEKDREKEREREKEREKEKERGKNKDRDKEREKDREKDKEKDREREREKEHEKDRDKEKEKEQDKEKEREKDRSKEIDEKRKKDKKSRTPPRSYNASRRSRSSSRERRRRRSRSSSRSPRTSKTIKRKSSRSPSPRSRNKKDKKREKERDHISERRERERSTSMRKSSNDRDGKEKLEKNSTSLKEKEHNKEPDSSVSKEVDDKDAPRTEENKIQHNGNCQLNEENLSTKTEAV
UniProt P61326: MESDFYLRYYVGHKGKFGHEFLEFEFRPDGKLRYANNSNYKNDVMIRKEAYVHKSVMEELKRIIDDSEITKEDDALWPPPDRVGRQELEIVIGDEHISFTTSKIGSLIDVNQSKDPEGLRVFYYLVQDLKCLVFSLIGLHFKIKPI
UniProt Q9HAU5: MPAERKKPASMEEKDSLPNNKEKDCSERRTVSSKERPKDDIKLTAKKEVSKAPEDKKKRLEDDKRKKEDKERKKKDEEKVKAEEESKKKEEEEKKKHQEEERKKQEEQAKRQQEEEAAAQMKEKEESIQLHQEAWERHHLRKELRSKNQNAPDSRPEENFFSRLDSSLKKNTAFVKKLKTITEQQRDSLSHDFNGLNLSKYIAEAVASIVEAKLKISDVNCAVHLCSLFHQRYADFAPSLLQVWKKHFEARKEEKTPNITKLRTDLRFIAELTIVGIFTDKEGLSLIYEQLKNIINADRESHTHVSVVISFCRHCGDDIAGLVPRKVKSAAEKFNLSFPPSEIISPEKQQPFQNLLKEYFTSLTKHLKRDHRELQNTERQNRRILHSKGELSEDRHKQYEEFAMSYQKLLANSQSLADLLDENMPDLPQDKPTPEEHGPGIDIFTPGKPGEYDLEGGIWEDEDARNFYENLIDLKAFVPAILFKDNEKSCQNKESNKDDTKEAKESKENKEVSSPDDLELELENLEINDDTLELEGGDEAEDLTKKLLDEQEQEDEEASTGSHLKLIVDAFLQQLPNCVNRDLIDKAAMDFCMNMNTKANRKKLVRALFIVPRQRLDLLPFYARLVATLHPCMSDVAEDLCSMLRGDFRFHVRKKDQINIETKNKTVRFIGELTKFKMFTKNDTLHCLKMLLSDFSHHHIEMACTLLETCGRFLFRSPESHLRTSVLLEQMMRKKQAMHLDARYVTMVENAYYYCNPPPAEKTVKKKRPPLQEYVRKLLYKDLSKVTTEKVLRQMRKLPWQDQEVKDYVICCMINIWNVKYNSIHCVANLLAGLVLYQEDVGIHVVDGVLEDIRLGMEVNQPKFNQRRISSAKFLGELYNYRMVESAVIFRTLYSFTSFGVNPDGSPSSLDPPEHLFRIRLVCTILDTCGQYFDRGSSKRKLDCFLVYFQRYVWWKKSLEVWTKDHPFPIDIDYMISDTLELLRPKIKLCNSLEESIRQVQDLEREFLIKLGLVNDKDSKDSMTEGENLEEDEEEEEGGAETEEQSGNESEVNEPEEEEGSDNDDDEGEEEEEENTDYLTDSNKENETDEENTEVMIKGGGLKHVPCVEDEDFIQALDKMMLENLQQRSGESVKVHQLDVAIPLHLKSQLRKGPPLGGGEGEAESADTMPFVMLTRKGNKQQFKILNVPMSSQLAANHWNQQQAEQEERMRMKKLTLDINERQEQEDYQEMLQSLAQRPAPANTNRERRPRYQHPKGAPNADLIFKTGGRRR

These are yes or no findings as the source states them, for the method shown. Binding seen in cells or lysates may run through a third protein. Binding calls can cover weak binding; strength is not graded here.

In this assay the target is Splicing Regulatory Glutamine/Lysine-Rich Protein 1, exon 10-inclusive variant (SREK1^L) (human (endogenous in Hep3B)) (UniProt Q8WXA9). In words: co-IP; endogenous immunoprecipitation from Hep3B cells with IgG or two commercial anti-SREK1 antibodies (ab1: SREK1^L; ab2: L and S forms) on Protein G Dynabeads; IP buffer 20 mM Tris pH 8, 10% glycerol, 150 mM NaCl, 0.1% NP-40, 0.1 mM EDTA; 2 h at 4 °C; western blot.
Turning to GNL2 (from UniProt Q13823 1-731), the binding result is “binds”. To MAGOH (from UniProt P61326 1-146) belongs “binds”; to UPF2 (from UniProt Q9HAU5 1-1272), “binds”. To B1 belongs “binds”; to B2, “binds”.
